Results are given in words; binding and its absence hold for the method and conditions named. Binding seen in cells or lysates may run through a third protein.
Molecular target: FLAG-tagged NPR1 (natriuretic peptide receptor 1) (UniProt P18910)
Assay: co-IP; HEK293A cells transfected with mouse PDE2A3 and/or FLAG-NPR1; lysis in 20 mM Tris, 1% triton, 120 mM NaCl, 2 mM EDTA, 2 mM EGTA; lysate incubated with anti-FLAG or anti-PDE2A3 antibody at 4 °C overnight; Protein A/G agarose; immunoblotting

Chains of the proteins cited; added tags and fusions are not shown. Residues count along the entry.
UniProt P18910, residues 29-1057: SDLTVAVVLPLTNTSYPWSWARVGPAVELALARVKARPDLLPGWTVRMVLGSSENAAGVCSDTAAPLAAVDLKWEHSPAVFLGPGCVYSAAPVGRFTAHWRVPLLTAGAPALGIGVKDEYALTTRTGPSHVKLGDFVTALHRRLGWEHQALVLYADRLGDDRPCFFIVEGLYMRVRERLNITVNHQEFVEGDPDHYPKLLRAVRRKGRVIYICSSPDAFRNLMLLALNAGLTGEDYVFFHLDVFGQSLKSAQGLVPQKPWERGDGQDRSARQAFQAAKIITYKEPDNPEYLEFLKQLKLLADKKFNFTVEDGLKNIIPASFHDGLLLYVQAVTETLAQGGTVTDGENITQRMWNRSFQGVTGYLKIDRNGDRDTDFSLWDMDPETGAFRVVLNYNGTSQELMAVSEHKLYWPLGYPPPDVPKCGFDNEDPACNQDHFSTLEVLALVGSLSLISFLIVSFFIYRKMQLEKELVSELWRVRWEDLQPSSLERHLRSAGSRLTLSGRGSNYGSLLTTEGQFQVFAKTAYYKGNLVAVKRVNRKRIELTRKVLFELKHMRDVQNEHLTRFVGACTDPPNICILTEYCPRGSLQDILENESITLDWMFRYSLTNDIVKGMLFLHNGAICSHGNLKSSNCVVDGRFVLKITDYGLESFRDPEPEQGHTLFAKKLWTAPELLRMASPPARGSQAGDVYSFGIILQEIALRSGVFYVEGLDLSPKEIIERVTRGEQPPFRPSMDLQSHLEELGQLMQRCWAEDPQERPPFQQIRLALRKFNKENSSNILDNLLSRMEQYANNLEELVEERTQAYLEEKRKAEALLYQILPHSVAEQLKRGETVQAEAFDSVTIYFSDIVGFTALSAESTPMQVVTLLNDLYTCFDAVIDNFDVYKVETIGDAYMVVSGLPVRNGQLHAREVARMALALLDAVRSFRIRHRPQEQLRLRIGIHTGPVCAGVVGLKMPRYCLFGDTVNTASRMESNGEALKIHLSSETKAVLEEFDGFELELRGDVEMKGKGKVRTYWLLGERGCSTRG

B1: mouse PDE2A3 (phosphodiesterase 2) (enzyme, UniProt Q922S4-1 1-939)
chain: MGQACGHSILCRSQQYPAARPAEPRGQQVFLKPDEPPPQPCADSLQDALLSLGAVIDIAGLRQAARDALSAVLPKVETVYTYLLDGESRLVCEDPPHELPQEGKIREAVISQKRLSCNGLGPSDLLGKPLARLVAPLAPDMQVLVIPLLDKETGSVAAVILVHCGQLSDSEEQSLQVVEKHALVALRRVQALQQRRPEAVQNTSVDASEDQKDEKGYTDHDRKILQLCGELFDLDATSLQLKVLQYLQQETQATHCCLLLVSEDNLQLSCKVIGDKVLGEEVSFPLTMGRLGQVVEDKQCIQLKDLTSDDVQQLQNMLGCELQAMLCVPVISRATDQVVALACAFNKLGGDFPTSSFTDEDEHVIQHCFHYTGTVLTSTLAFQKEQKLKCECQALLQVAKNLFTHLDDVSVLLQEIITEARNLSNAEICSVFLLDQNELVAKVFDGGVVDDESYEIRIPADQGIAGHVATTGQILNIPDAYAHPLFYRGVDDSTGFRTRNILCFPIKNENQEVIGVAELVNKINGPWFSKFDEDLATAFSIYCGISIAHSLLYKKVNEAQYRSHLANEMMMYHMKVSDDEYTKLLHDGIQPVAAIDSNFANFTYTPRSLPEDDTSMAILSMLQDMNFINNYKIDCPTLARFCLMVKKGYRDPPYHNWMHAFSVSHFCYLLYKNLELSNYLEDIEIFALFISCMCHDLDHRGTNNSFQVASKSVLAALYSSEGSVMERHHFAQAIAILNTHGCNIFDHFSRKDYQRMLDLMRDIILATDLAHHLRIFKDLQKMAEVGYDRNNRQHHRLLLCLLMTSCDLSDQTKGWKTTRKIAELIYKEFFSQGDLEKAMGNRPMEMMDREKAYIPELQISFMEHIAMPIYKLLQDLFPKAAELYERVASNREHWTKVSHKFTIRGLPSNNSLDFLDEEYEVPDLDGTRAPVNGCCSLEG
binding: no binding

Source: publication PMC6014982
